From article PMC4743919
Results are given in words; binding and its absence hold for the method and conditions named. In cells and extracts the contact can be indirect. Some binding calls cover weakened binding; strength is not graded here. Tags and fused reporters may be left off the sequences shown.

Chains of the proteins cited; added tags and fusions are not shown. Lines headed by an entry give the natural chain unless they say otherwise; changes in a name come on top.
UniProt P32558: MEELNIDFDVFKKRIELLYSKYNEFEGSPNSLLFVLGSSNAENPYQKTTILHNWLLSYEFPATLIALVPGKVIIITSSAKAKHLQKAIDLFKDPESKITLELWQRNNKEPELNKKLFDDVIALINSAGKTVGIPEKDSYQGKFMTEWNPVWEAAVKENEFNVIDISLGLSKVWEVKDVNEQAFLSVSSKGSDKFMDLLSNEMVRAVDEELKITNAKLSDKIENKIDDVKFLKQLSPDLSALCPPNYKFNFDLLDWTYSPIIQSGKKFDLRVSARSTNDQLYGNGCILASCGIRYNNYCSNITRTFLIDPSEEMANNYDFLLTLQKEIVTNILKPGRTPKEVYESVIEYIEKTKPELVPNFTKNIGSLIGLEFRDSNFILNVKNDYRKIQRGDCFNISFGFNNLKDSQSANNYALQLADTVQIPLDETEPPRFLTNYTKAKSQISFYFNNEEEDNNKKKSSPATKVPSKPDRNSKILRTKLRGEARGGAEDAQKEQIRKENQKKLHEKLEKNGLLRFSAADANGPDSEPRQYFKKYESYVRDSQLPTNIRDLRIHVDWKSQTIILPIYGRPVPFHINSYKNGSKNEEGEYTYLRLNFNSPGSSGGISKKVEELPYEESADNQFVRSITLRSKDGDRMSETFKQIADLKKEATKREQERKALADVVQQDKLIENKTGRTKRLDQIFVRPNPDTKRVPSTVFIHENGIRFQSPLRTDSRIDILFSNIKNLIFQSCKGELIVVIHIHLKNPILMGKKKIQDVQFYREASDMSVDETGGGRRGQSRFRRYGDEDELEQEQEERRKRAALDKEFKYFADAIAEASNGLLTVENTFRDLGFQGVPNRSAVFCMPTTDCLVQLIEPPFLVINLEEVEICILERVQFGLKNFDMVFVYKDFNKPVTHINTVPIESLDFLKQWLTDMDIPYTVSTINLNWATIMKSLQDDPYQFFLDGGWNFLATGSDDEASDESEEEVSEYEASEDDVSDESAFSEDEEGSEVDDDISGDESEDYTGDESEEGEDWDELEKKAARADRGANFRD

What was measured:
[1] = target: T1, PA-tagged Mms22 (S. cerevisiae) (UniProt Q06164); test: co-IP; PA-Mms22 captured on IgG-coupled Dynabeads from extracts of yeast cells in G1 or S-phase, with or without 0.03% MMS; Tris-acetate pH 9.0 acetate-salt buffer, Benzonase-digested extract, 2 h at 4°C; immunoblotting
T1 sequence: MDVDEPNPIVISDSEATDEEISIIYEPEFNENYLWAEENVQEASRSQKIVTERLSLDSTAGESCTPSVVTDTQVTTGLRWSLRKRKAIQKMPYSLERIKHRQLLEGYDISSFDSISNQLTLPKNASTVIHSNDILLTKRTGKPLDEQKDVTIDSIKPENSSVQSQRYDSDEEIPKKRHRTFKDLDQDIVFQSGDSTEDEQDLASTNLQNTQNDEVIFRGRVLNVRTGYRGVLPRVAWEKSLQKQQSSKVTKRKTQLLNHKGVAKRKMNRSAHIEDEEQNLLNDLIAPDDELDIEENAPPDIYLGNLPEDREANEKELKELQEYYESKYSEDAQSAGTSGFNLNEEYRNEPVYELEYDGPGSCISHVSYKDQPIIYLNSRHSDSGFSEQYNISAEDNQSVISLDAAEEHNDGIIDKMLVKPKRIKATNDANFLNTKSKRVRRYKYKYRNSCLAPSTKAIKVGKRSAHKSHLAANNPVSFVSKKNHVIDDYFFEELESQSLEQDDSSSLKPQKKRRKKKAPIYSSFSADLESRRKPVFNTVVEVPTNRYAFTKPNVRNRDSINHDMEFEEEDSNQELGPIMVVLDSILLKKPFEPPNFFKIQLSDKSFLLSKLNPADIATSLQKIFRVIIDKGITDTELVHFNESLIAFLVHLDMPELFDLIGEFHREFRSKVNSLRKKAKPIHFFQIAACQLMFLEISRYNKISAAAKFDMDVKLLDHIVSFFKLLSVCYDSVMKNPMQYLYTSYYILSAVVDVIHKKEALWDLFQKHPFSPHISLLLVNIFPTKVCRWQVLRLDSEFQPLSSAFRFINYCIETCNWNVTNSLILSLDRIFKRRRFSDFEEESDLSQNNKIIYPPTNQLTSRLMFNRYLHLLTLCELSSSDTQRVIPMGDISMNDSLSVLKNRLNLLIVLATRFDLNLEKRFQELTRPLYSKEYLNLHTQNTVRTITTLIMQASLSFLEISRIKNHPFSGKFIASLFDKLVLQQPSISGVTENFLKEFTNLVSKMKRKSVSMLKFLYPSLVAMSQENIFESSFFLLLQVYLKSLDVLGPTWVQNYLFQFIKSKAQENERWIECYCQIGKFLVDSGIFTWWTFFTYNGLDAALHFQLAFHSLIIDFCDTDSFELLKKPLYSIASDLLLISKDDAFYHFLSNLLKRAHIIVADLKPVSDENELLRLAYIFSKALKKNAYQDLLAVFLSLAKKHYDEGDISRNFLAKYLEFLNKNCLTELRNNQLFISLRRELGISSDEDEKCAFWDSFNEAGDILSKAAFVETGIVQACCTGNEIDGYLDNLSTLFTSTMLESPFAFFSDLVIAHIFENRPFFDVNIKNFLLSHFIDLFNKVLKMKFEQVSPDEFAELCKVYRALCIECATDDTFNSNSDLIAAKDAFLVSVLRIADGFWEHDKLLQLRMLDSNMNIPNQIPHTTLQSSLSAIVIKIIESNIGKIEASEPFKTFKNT

[2] = target: T1, PA-tagged Mms22 (S. cerevisiae); test: co-IP; as a2, but PA-Mms22 purified from extracts of ctf4Δ cells in G1 or S-phase; immunoblotting

FACT complex (Spt16, Pob3) (from UniProt P32558 1-1035; Q04636 1-552)
binding [1]: binds
binding [2]: binds

B1: Ctf4 (protein, UniProt Q01454 1-927)
chain: MVSVIDKLVFDFGGKTLVSLAPDNNTLCVANKNGLTKILKTNNPEEEPETLDSSKLVSSIKCYSNSHFLMTTMQGDALRYNIDSSQEELLARFALPLRDCCVIHSGKMAVFGGDDLELILLELDDETHKKHAIKIDEQVSQISYNSQMNILAVSMINGKVQIFSLTSTIPNKVHELNDYIVANSYDDTHRDKILSNMMDDIDKDNDNDLSETADPDENNVADPEFCAANRICTRVAWHPKGLHFALPCADDTVKIFSIKGYSLQKTLSTNLSSTKAHFIDLQFDPLRGTYIAAVDLNNKLTVWNWETSEIHYTREFKRKITNIAWKIQADSKTLDLVLGTWSGSIAIVQNLAESVVSNIPDQSVAESSTKHGLFVDSESDLENLEGNDDINKSDKLFSDITQEANAEDVFTQTHDGPSGLSEKRKYNFEDEEDFIDDDDGAGYISGKKPHNEHSYSRVHKTHSFPISLANTGKFRYMPFSPAGTPFGFTDRRYLTMNEVGYVSTVKNSEQYSITVSFFDVGRFREYHFEDLFGYDLCFLNEKGTLFGQSKTGQIQYRPHDSIHSNWTKIIPLQAGERITSVAATPVRVIVGTSLGYFRSFNQFGVPFAVEKTSPIVALTAQNYRVFSVHYSQFHGLSYSLSELGTSSKRYYKRECPLPMSLPNINSDMKKDANLDYYNFNPMGIKSLFFSSYGDPCIFGSDNTLLLLSKWRSPEESKWLPILDSNMEIWKMSGGKETTDIHVWPLALAYDTLNCILVKGKHIWPEFPLPLPSEMEIRMPVFVKSKLLEENKAILNKKNEIGADTEAEEGEEDKEIQIPVSMAAEEEYLRSKVLSELLTDTLENDGEMYGNENEVLAALNGAYDKALLRLFASACSDQNVEKALSLAHELKQDRALTAAVKISERAELPSLVKKINNIREARYEQQLK
binding [1]: binds

B2: Ctf4-ΔNT (amino acids 461–927) (domain or fragment, UniProt Q01454 461-927)
chain: THSFPISLANTGKFRYMPFSPAGTPFGFTDRRYLTMNEVGYVSTVKNSEQYSITVSFFDVGRFREYHFEDLFGYDLCFLNEKGTLFGQSKTGQIQYRPHDSIHSNWTKIIPLQAGERITSVAATPVRVIVGTSLGYFRSFNQFGVPFAVEKTSPIVALTAQNYRVFSVHYSQFHGLSYSLSELGTSSKRYYKRECPLPMSLPNINSDMKKDANLDYYNFNPMGIKSLFFSSYGDPCIFGSDNTLLLLSKWRSPEESKWLPILDSNMEIWKMSGGKETTDIHVWPLALAYDTLNCILVKGKHIWPEFPLPLPSEMEIRMPVFVKSKLLEENKAILNKKNEIGADTEAEEGEEDKEIQIPVSMAAEEEYLRSKVLSELLTDTLENDGEMYGNENEVLAALNGAYDKALLRLFASACSDQNVEKALSLAHELKQDRALTAAVKISERAELPSLVKKINNIREARYEQQLK
binding [1]: no binding
